Holding throughout (test): co-IP; HEK293 cells co-transfected with β-arrestin 2 and GPR110-HA (WT or mutants) for 24 h; treated with 10 nM synaptamide or DMSO for 5 or 10 min; lysed in buffer with 1% Triton; immunoprecipitation with HA antibody; blots with anti-HA and anti-β-arrestin
Assay [1] concerns the target T1, C-terminal HA-tagged human GPR110 (GPR110-HA), wild type (human) (UniProt Q5T601).
T1 sequence: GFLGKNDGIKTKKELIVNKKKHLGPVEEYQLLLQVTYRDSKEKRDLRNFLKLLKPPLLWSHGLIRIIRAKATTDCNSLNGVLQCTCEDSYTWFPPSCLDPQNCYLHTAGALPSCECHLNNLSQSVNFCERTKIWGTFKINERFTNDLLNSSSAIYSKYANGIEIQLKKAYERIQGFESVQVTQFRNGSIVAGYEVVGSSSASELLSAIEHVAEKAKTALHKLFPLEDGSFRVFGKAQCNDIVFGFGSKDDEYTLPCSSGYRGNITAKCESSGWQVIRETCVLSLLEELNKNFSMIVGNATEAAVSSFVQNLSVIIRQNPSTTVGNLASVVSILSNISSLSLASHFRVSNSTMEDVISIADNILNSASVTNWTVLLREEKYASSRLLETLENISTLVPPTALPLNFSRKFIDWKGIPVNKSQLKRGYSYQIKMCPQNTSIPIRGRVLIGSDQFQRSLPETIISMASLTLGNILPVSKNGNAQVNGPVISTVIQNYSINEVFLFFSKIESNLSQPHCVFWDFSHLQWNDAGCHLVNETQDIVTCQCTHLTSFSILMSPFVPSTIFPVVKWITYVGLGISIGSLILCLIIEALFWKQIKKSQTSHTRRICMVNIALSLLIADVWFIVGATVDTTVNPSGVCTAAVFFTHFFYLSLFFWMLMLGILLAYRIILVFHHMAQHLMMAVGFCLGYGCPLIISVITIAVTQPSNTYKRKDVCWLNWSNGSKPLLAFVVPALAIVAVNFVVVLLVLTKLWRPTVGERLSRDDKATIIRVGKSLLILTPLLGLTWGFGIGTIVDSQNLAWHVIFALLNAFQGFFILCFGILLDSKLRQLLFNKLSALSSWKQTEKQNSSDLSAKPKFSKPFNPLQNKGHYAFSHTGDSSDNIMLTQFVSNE

The target in assay [2] is T2, GPR110-HA double mutant N512A/Y513A (human) (UniProt Q5T601).
T2 sequence: T1 sequence with N493A, Y494A

The target of assay [3] is T3, GPR110-HA double mutant Q511A/N512A (human) (UniProt Q5T601).
T3 sequence: T1 sequence with Q492A, N493A

Where a chain is given by its changes, count along the chain named. Results are given in words; binding and its absence hold for the method and conditions named. Binding seen in cells or lysates may run through a third protein. Some entries that bind do so weakly or less than the wild type. Where a sequence is shown, tags or fusion partners need not be part of it.

“β-arrestin 2 (variant 1) (from UniProt P32121 1-409)”: the binding entry was “binds” in assay [1], “no binding” in assay [2] and “no binding” in assay [3].

These data come from publication PMC7060178.
